From ChEMBL document CHEMBL5550209, “Hit-to-Lead Optimization of Heterocyclic Carbonyloxycarboximidamides as Selective Antagonists at Human Adenosine A3 Receptor” (J Med Chem, 2024)

Experiment: in vitro
Settings: human, Caco-2

Structure (SMILES): CC(C)NCC(O)COc1cccc2ccccc12 (stereo unspecified) [PROPRANOLOL]
- Papp A→B: 32.2 ×10⁻⁶ cm/s
